Experimental data as given in PubChem BioAssay AID1347076 (National Center for Advancing Translational Sciences (NCATS), 2019).
The whole screen tested about 400,000 compounds, of which about 13,000 (3.2%) were called active. This list was built around the results that the source calls inconclusive (neither active nor inactive); the mix of calls is not that of the screen. Calls follow the shape of the dose curve; as a rule, active = well fitted cell-killing curve with a large enough effect; inconclusive = small, poorly fitted or top-dose-only effect, or effect the other way; inactive = flat fitted curve, though single readings scatter. Potencies of inconclusive entries are doubtful fits and often do not repeat.

assay: qHTS assay for MDR1-selective chemotherapeutics: Primary screen using the drug-selected MDR subline cells KB-V1; conditions: KB-V1 MDR cells viability, CellTiter-Glo, 72 h; activity change, negative = cytotoxicity: at 46.1 µM (top of the series); also: nearly all actives have a fitted effect of over 60% in size
How it was run: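 Cells of the MDR subline KB-V1 are plated, dosed with compound at multiple concentrations, and incubated 72 h at 37 degrees C; CellTiter-Glo is then added and luminescence read after 10 min.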
% is scaled to controls: 0 for no effect and ±100 for the full control effect; potency is read from the fitted curve at half-maximal effect.

**Q.** For `O=C(Nc1ccc(Oc2ccc3ccccc3c2)cc1)c1ccco1`, which Potency is on record?
**A.** inconclusive: 18.4 µM [cytotoxic, single point]

**Q.** With `COc1ccc(C2=Nc3ccccc3N(C(=O)c3ccc(C(F)(F)F)cc3)C2C(=O)Nc2ccc3c(c2)OCCO3)cc1` (centres undefined) as the compound, how does the “activity change, negative = cytotoxicity” value read?
**A.** inactive: -5.92%

**Q.** For `Cc1cccn2c(=O)c3cc(C#N)c(=NC(=O)c4cccnc4)n(CC4CCCO4)c3nc12` (centres undefined), which Potency is on record?
**A.** inconclusive: 9.2 µM [cytotoxic, partial curve]

**Q.** For `Cc1ccc(NC(=O)CN(C)C(=O)CCSc2ccc(F)cc2)cc1`, which “activity change, negative = cytotoxicity” value is on record?
**A.** inactive: -14.4%

**Q.** With `O=C(COC(=O)c1cnccn1)c1ccc(Br)cc1` as the compound, how does the Potency read?
**A.** inconclusive: 20.6 µM [rising, single point]

**Q.** With `CC(=O)NC1=NN(C(C)=O)C(C)(c2ccc(C)o2)S1` (centres undefined) as the compound, how does the Potency read?
**A.** inconclusive: 3.66 µM [rising, full curve, poor fit]

**Q.** Which Potency does the source give for `Cc1ccc(NC(=O)C2(C)CCN2Cc2cccc3c2OCO3)cc1O` (centres undefined) here?
**A.** inconclusive: 29.1 µM [cytotoxic, partial curve, poor fit]

**Q.** Which Potency does the source give for `CNC(=O)NC(=O)COC(=O)c1n[nH]c2ccccc12` here?
**A.** inconclusive: 5.8 µM [rising, full curve, poor fit]

**Q.** With `CCN(C(=O)CSc1nc(-c2ccccc2)no1)c1ccccc1` as the compound, how does the “activity change, negative = cytotoxicity” value read?
**A.** inactive: -14%

**Q.** With `O=C(C[n+]1cccc(Br)c1)c1ccc(O)c(O)c1` as the compound, how does the “activity change, negative = cytotoxicity” value read?
**A.** inactive: 26.7%

**Q.** With `O=C(COC(=O)c1cc([N+](=O)[O-])ccc1N1CCOCC1)NC1CCCCC1` as the compound, how does the Potency read?
**A.** inconclusive: 29.1 µM [cytotoxic, single point]

**Q.** For `Nc1ncnc2c1ncn2[C@@H]1O[C@H](CO)[C@@H](O)[C@H]1O`, which “activity change, negative = cytotoxicity” value is on record?
**A.** inactive: -4.84%

**Q.** For `CN(C)CCCNC(=S)N(CCN(C)C)Cc1cc2cc3c(cc2[nH]c1=O)OCCO3`, which Potency is on record?
**A.** inconclusive: 20.6 µM [rising, single point]

**Q.** For `Cc1ccc2occ(-c3cc(-c4ccc(F)cc4)nc4c3COc3ccc(F)cc3-4)c(=O)c2c1`, which “activity change, negative = cytotoxicity” value is on record?
**A.** inactive: 0%

**Q.** Which Potency does the source give for `Cc1ccc(O)c(/C=N/NC(=O)CN2CCCC2)c1` here?
**A.** inconclusive: 18.4 µM [cytotoxic, single point]

**Q.** Which Potency does the source give for `CCN(CC(=O)NCc1ccc(Cl)cc1)C(=O)NCc1ccc(Cl)cc1` here?
**A.** inconclusive: 4.11 µM [cytotoxic, full curve]

**Q.** With `O=C(Nc1ccc2nc([C@@H]3O[C@H](CO)[C@@H](O)[C@H](O)[C@H]3O)[nH]c2c1)NC(c1ccccc1)c1ccccc1` as the compound, how does the “activity change, negative = cytotoxicity” value read?
**A.** inactive: 2.99%

**Q.** With `CCC(CC)c1nnc(NC(=O)CCN2C(=O)c3ccccc3C2=O)s1` as the compound, how does the Potency read?
**A.** inconclusive: 18.4 µM [rising, single point]

**Q.** Which Potency does the source give for `C#CCNC(=O)C[C@@H]1C[C@@]2(C(=O)OC)CCCCC=C2N(CCCCCCCC)C1=O` here?
**A.** inconclusive: 13 µM [cytotoxic, partial curve]

**Q.** Which Potency does the source give for `CSc1sc(C(=O)NCC2CC2)c(-c2cccs2)c1C#N` here?
**A.** inconclusive: 14.6 µM [cytotoxic, partial curve]

**Q.** For `N=c1c2c3c(sc2ncn1CCCN1CCOCC1)CCCCC3`, which Potency is on record?
**A.** active: 8.2 µM

**Q.** With `CN1CCC(N(C)C(=O)/C=C/c2cn(-c3ccccc3)nc2-c2cccs2)CC1` as the compound, how does the Potency read?
**A.** active: 20.6 µM

**Q.** For `Cc1ccccc1CSc1nc(-c2cccc(F)c2)nc2c1Cc1c(CO)cnc(C)c1O2`, which Potency is on record?
**A.** inconclusive: 16.4 µM [rising, single point]

**Q.** For `Cc1cccc(-c2cnc(C(O)Cc3ccccc3)[nH]2)c1` (centres undefined), which Potency is on record?
**A.** inconclusive: 29.1 µM [cytotoxic, single point]

**Q.** For `CC(=O)Nc1cccc(C(=O)OC2CCOC2=O)c1` (centres undefined), which Potency is on record?
**A.** inconclusive: 29.1 µM [rising, single point]

**Q.** With `COc1ccc(CC(=O)Nc2cccc(SC)c2)cc1OC` as the compound, how does the Potency read?
**A.** active: 14.6 µM

**Q.** Which Potency does the source give for `CC(C)c1ccccc1-n1c(SCc2cc(=O)oc3ccc4ccccc4c23)nnc1-c1cccnc1` here?
**A.** active: 20.6 µM

**Q.** With `Clc1nc(-c2ccccc2)c2ccccc2n1` as the compound, how does the Potency read?
**A.** inconclusive: 25.9 µM [rising, partial curve, poor fit]

**Q.** For `C=CCN(c1ccccc1OC)S(=O)(=O)c1cccc(C(=O)NCC(c2ccc(OC)cc2)N2CCCC2)c1` (centres undefined), which Potency is on record?
**A.** inconclusive: 18.4 µM [cytotoxic, partial curve, poor fit]

**Q.** With `CN(C)CCNc1ccc2nnn3c4ccc(O)cc4c(=O)c1c23` as the compound, how does the Potency read?
**A.** inconclusive: 11.6 µM [cytotoxic, partial curve, poor fit]

**Q.** With `COc1ccc(N(CC(=O)NC2CCCCC2)C(=O)c2ccc(C)s2)c(OC)c1` as the compound, how does the Potency read?
**A.** inconclusive: 29.1 µM [cytotoxic, single point]

**Q.** With `CN(C)C(=O)c1ccc2c(c1)N(CC(=O)NCc1ccccc1Cl)C(=O)C1CCCCN21` (centres undefined) as the compound, how does the “activity change, negative = cytotoxicity” value read?
**A.** inactive: -10.1%

**Q.** With `Fc1ccc2nc(Nc3ccccc3)sc2c1` as the compound, how does the “activity change, negative = cytotoxicity” value read?
**A.** inactive: 0.756%

**Q.** For `Cn1c(NCCN2CCOCC2)nc2c1c(=O)n(Cc1cccc(Cl)c1)c(=O)n2C`, which Potency is on record?
**A.** inconclusive: 9.2 µM [cytotoxic, partial curve, poor fit]

**Q.** With `COc1ccc(OC)c(CNC(=O)c2nn(C)c3c2CS(=O)(=O)c2ccccc2-3)c1` as the compound, how does the Potency read?
**A.** inactive

**Q.** Which “activity change, negative = cytotoxicity” value does the source give for `CC(=O)c1c(C)[nH]c(C(=O)OCn2nnc3ccccc3c2=O)c1C` here?
**A.** inactive: -14.6%

**Q.** Which Potency does the source give for `COc1ccc(CNc2cc(C)ccn2)cc1` here?
**A.** inconclusive: 8.2 µM [cytotoxic, partial curve, poor fit]

**Q.** With `CCOc1ccc(NC(=O)CCCOc2cc(=O)n(C)c3ccccc23)cc1` as the compound, how does the Potency read?
**A.** inconclusive: 16.4 µM [cytotoxic, single point]

**Q.** For `Cc1cc(NC(=O)CCN2C(=O)/C(=C/c3ccccc3Cl)SC2=S)no1`, which Potency is on record?
**A.** inconclusive: 16.4 µM [rising, partial curve, poor fit]

**Q.** Which Potency does the source give for `COc1ccc(NC(=O)c2cccc(Cn3cc(Br)c([N+](=O)[O-])n3)c2)c(C)c1` here?
**A.** inconclusive: 29.1 µM [cytotoxic, single point]

**Q.** Which Potency does the source give for `O=C(NC(=O)c1cccc(F)c1)OC[C@@H]1CCCN2CCCC[C@H]12` here?
**A.** inconclusive: 16.4 µM [rising, partial curve, poor fit]

**Q.** For `CN(CC(=O)N1CCC(C(N)=O)CC1)S(=O)(=O)c1ccc2ccccc2c1`, which activity change, negative = cytotoxicity is on record?
**A.** inconclusive: -5.44%

**Q.** For `COc1ccc(N2CC(NC(=O)C3CCCCC3)CC2=O)cc1OC` (centres undefined), which Potency is on record?
**A.** inconclusive: 29.1 µM [rising, single point]

**Q.** Which Potency does the source give for `COc1ccc(N2CCN(C(=O)CN3C(=O)COc4ccc(S(=O)(=O)N5CCC(C)CC5)cc43)CC2)cc1` here?
**A.** inconclusive: 3.66 µM [cytotoxic, partial curve]
